Reference: PubChem BioAssay AID540256 (National Center for Advancing Translational Sciences (NCATS), 2011)
Out of some 300,000 compounds screened, about 3,700 (1.2%) were called active. Inconclusive means that the source gave no clear call. Such entries were picked first, then a sample of the others. Calls follow the shape of the full dose curve; tested in HEK293 cells. A potency beside an inconclusive call is a rough fit, not a confirmed value.

Assay: qHTS for Inhibitors of binding or entry into cells for Lassa Virus; also: nearly all actives have a fitted effect of over 50% in size
Details: Lassa virus pseudotype entry inhibition, cell reporter; series mostly up to 37.9 µM
Potency is read from the fitted curve at half-maximal effect.

SMILES | Potency
Clc1ccc2nc(CSc3ncn[nH]3)cn2c1 | inactive
Cc1nn(C(=O)c2cccs2)c(C)c1CN1C(=O)c2ccccc2C1=O | inconclusive: 32.6 µM [inhibitor, single point]
C=CCn1c(O)c(N=NC(=S)Nc2cccc(OC)c2)c2ccccc21 | inconclusive: 16.4 µM [inhibitor, partial curve, poor fit]
CC(C)(c1ccccc1)c1ccc(OCCCNCCO)cc1 | inconclusive: 22.4 µM [inhibitor, single point]
COc1ccc(S(=O)(=O)N2CCCCC2)cc1NC(=O)c1ccc([N+](=O)[O-])o1 | inactive
Cc1ccc(C2=Nn3c(COc4ccc(Cl)cc4)nnc3SC2CC(=O)O)cc1 (stereo not drawn) | inconclusive: 0.794 µM [inhibitor, full curve, poor fit]
CN(Cc1cnccn1)Cc1nc(Cc2cccc(F)c2)no1 | inconclusive: 14.1 µM [activator, single point]
COc1ccc2nc3oc(C(=O)N4CCN(c5cc(C)ccc5C)CC4)cc3cc2c1 | inconclusive: 6.31 µM [activator, partial curve, poor fit]
CC(C)(CNC(=O)c1ccc([N+](=O)[O-])c(Cl)c1)CNC(=O)c1ccc([N+](=O)[O-])c(Cl)c1 | inconclusive: 14.1 µM [inhibitor, single point]
COc1ccc(C2Nc3ccccc3C(=O)N2Cc2ccccc2)cc1Cn1nnc2ccccc21 (stereo not drawn) | inconclusive: 3.26 µM [inhibitor, full curve]
O=C(NC1CCCCC1)C1CC(=O)N(CCc2ccccc2)C1 (stereo not drawn) | inconclusive: 29.1 µM [activator, single point]
O=C(Nc1c(C(=O)N2CCN(c3ccccc3)CC2)oc2ccccc12)c1ccc(Br)o1 | inconclusive: 5.62 µM [inhibitor, full curve, poor fit]
Cc1nccn1-c1c2c(c(C#N)c3nc4ccccc4n13)CCCC2 | inactive
CC(C)[C@H](NC(=O)N1CCn2c1nc1ccccc12)C(=O)NCc1ccc(F)cc1 | inconclusive: 3.16 µM [inhibitor, partial curve, poor fit]
CCOC(=O)c1c(-c2cccc([N+](=O)[O-])c2)csc1NC(=O)C1CC1 | inconclusive: 29.1 µM [inhibitor, single point]
CCOC(=O)c1ccc(-n2c(CCC(=O)O)ccc2-c2ccc(Br)cc2)cc1 | inactive
Cc1cc(=O)[nH]c2nnc(SCc3ccc(F)cc3)n12 | inactive
O=C(O)C1=C(C2CCCCC2)C(=O)c2ccccc21 | inconclusive: 2.82 µM [activator, single point]
CC(=O)N/C(=C\c1ccccc1)C(=O)OCC(=O)NC(C)C12CC3CC(CC(C3)C1)C2 (stereo not drawn) | inactive
O=C(Nc1ccc(F)cc1)N1CCN(c2ccccc2F)CC1 | inactive
O=C1NC(=O)N(Cc2ccco2)C(=O)/C1=C/C=C/c1ccco1 | inconclusive: 7.94 µM [inhibitor, partial curve, poor fit]
COC(=O)c1ccc(NC(=O)CSCc2ccc(C)cc2)cc1 | inconclusive: 20.6 µM [inhibitor, single point]
COc1cccc(CNS(=O)(=O)c2ccc3c(c2)CCN3C(=O)C2CCC2)c1 | inconclusive: 8.91 µM [activator, partial curve, poor fit]

As a short view, three of the compounds above.
SMILES | Potency
O=C(Nc1c(C(=O)N2CCN(c3ccccc3)CC2)oc2ccccc12)c1ccc(Br)o1 | inconclusive: 5.62 µM [inhibitor, full curve, poor fit]
Cc1nccn1-c1c2c(c(C#N)c3nc4ccccc4n13)CCCC2 | inactive
CC(C)[C@H](NC(=O)N1CCn2c1nc1ccccc12)C(=O)NCc1ccc(F)cc1 | inconclusive: 3.16 µM [inhibitor, partial curve, poor fit]

Remaining list, next part

SMILES | Potency
CCCCc1nc2cc(C(=O)N3CCCCC3COC)ccc2o1 (stereo not drawn) | inconclusive: 6.31 µM [activator, single point]
COc1cccc(CNCCSc2nnnn2C)c1OCc1ccccc1Cl | inconclusive: 25.1 µM [inhibitor, single point]
CC(C)(C)Nc1nc(NN)nc(NC(C)(C)C)n1 | inconclusive: 35.5 µM [inhibitor, single point]
COc1ccc(S(=O)(=O)N2CCCC2C(=O)Nc2nc3c(s2)CCCC3)cc1 (stereo not drawn) | inactive
COc1ccc(NS(=O)(=O)c2ccc3c(c2)CCCN3C(=O)C2CCC2)cc1OC | inconclusive: 2.82 µM [inhibitor, partial curve, poor fit]
COc1ccc(NC(=O)c2c3c(nc4ccccc24)CCC3)cc1 | inactive
CCCCc1nn2c(=O)cc(COC(=O)C(C)Oc3ccccc3)nc2s1 (stereo not drawn) | inactive
CCCN1C2CCCC1CC(NC(=O)Nc1ccc(C(C)C)cc1)C2 (stereo not drawn) | inconclusive: 18.3 µM [inhibitor, single point]
CC(CCc1ccccc1)NC(=O)CN(C)Cc1ccc(F)cc1 (stereo not drawn) | inconclusive: 1.26 µM [inhibitor, full curve, poor fit]
CCOc1cccc(C2/C(=C(/O)c3ccc4c(c3)CC(C)O4)C(=O)C(=O)N2Cc2cccnc2)c1 (stereo not drawn) | inconclusive: 2.51 µM [activator, full curve]
O=C(O)CCC(=O)N1CCN(c2ccc(C(=O)c3ccc(F)cc3)cc2)CC1 | inactive
CCCc1nnc(NC(=O)CSc2nc3ccccc3[nH]2)s1 | inconclusive: 7.08 µM [activator, full curve, poor fit]
COC(=O)c1cc(C(=O)c2cc(Br)ccc2O)coc1=N | inactive
Brc1ccc(-n2cnc(-c3ccccc3)c2)cc1 | inconclusive: 35.5 µM [inhibitor, single point]
CCOc1cc(C(=O)OCC(=O)Nc2ccc(SC(F)F)cc2)cc(OCC)c1OCC | inconclusive: 3.66 µM [inhibitor, single point]
COc1cccc(/C=N/NC(=O)CSc2nnc(C)n2-c2ccccc2)c1O | inconclusive: 22.4 µM [inhibitor, single point]
COc1ccc(Cl)cc1NC(=O)CN(c1ccccc1)S(=O)(=O)N(C)C | inconclusive: 22.4 µM [inhibitor, single point]
Cc1ccc(CSC2=Nc3ccccc3C3=NC(CC(=O)NCc4ccco4)C(=O)N23)cc1 (stereo not drawn) | inactive
CSc1cccc(NC(=O)c2cnccn2)c1 | inactive
CC(C)c1ccc(S(=O)(=O)c2nnn3c2nc(N2CCOCC2)c2sccc23)cc1 | inconclusive: 28.2 µM [inhibitor, single point]
Cc1ccc(NCN2C(=O)C(=O)c3ccccc32)nc1 | inconclusive: 7.08 µM [inhibitor, full curve]
COc1ccc(N2CC(C(=O)NCCC3=CCCCC3)CC2=O)c(OC)c1 (stereo not drawn) | inactive
Cc1ccc(C2CC(=O)C(C=NCCN3CCN(C(=S)Nc4ccc(F)cc4)CC3)=C(O)C2)cc1 (stereo not drawn) | inconclusive: 12.6 µM [inhibitor, single point]

Fetched one by one from the list above (2):
SMILES | Potency
COc1ccc(NC(=O)c2c3c(nc4ccccc24)CCC3)cc1 | inactive
CCCCc1nc2cc(C(=O)N3CCCCC3COC)ccc2o1 (stereo not drawn) | inconclusive: 6.31 µM [activator, single point]

(listing goes on)

SMILES | Potency
COc1cccc2c1OC1(CCN(C(C)C)CC1)N1N=C(c3cccnc3)CC21 (stereo not drawn) | inconclusive: 5.62 µM [activator, partial curve]
CC(C)(C)C(=O)OCc1nc(-c2ccc(F)cc2)cs1 | inconclusive: 6.31 µM [activator, full curve, poor fit]
Cc1ccc(CNc2nc(C)nc3sc4c(c23)CCC4)cc1 | inactive
COc1cc(C(=O)NCC(c2cccs2)N2CCc3ccccc32)cc(OC)c1OC (stereo not drawn) | inconclusive: 14.1 µM [inhibitor, partial curve, poor fit]
O=C(NNC(=S)NC(=O)c1cccs1)c1ccc(NC(=O)c2ccccc2)cc1 | inconclusive: 11.2 µM [inhibitor, single point]
Cc1ccc(N2CCCn3c2cc(C)c(C#N)c3=O)cc1C | inconclusive: 5.8 µM [inhibitor, partial curve, poor fit]
Cc1n[nH]c(=O)c2c(NC(=O)CSc3nn(-c4ccccc4)c(=S)s3)oc(C)c12 | inactive
O=C(Nc1ccc(S(=O)(=O)Nc2cnc3ccccc3n2)cc1)c1ccc(F)cc1 | inactive
COc1ccccc1/C=C1/C(=N/O)C2CCN1CC2 | inconclusive: 5.62 µM [inhibitor, full curve]
CCC(Oc1cc(Cl)ccc1Cl)C(=O)NN1C(=O)C2C3CCC(C3=C(C)C)C2C1=O (stereo not drawn) | inconclusive: 0.58 µM [activator, single point]
COc1ccccc1CNC(=O)C1CCN(Cc2cc3ccccc3n2Cc2cccc(C)c2)CC1 | inconclusive: 35.5 µM [inhibitor, single point]
O=C(NCc1ccc(F)cc1)C(c1ccc(F)cc1)N(C(=O)c1csnn1)C1CC1 (stereo not drawn) | inactive
COc1ccc(-c2ccc(S(=O)(=O)NCC3CCCO3)cc2)cc1 (stereo not drawn) | inconclusive: 12.6 µM [inhibitor, partial curve]
COc1cc2c(cc1NC(=O)CSc1nc3cc(Cl)ccc3s1)oc1ccccc12 | inactive
C=C(C)CSc1nnc([C@@H](NC(=O)OC(C)(C)C)C(C)CC)o1 (stereo partly drawn) | inconclusive: 25.9 µM [inhibitor, partial curve, poor fit]
c1ccc(-c2cn3nc4c(nc3n2)CCCC4)cc1 | active: 1.12 µM
Cc1ccc(S(=O)(=O)Nc2cc(C)on2)cc1 | inactive
Cc1cccc2c(=O)oc(-c3ccccc3Cl)nc12 | inconclusive: 15.8 µM [activator, partial curve, poor fit]
CC(=O)c1ccc(Oc2ncnc3sccc23)cc1 | inconclusive: 12.6 µM [activator, partial curve, poor fit]
CC(=O)Oc1ccc2ccccc2c1C(NC(=O)Cc1ccccc1)c1ccccc1 (stereo not drawn) | inconclusive: 18.3 µM [inhibitor, single point]
COc1ccccc1NS(=O)(=O)c1cccc(C(=O)N/N=C(\C)c2ccncc2)c1 | inactive
COc1ccc(S(=O)(=O)Nc2ccc(F)cc2)cc1N(C)S(=O)(=O)c1ccc(Cl)cc1 | inconclusive: 18.3 µM [inhibitor, partial curve, poor fit]
